Screen size: about 320,000 compounds; about 22,000 (6.9%) were called active. The shares of active, inactive and inconclusive entries below differ from those in the screen. The call rests on the fitted dose curve; in most records, active means well fitted inhibition curve with a large enough effect; inconclusive means small, poorly fitted or top-dose-only effect, or another doubt; inactive means no such curve, though single readings can be large or run the other way. Potencies of inconclusive entries are doubtful fits and often do not repeat.
Assay: Primary qHTS for delayed death inhibitors of the malarial parasite plastid, 96 hour incubation
Details: P. falciparum luciferase reporter growth; series mostly up to 28.7 µM
Procedure, shortened: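 Compounds incubated with erythrocytes infected by luciferase-expressing P. falciparum (2% hematocrit, 0.05% parasitemia final) for 96 hours, 37 C in 5% CO2. Growth inhibition scored as decreased luciferase luminescence.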
Potency means the concentration at half of the fitted maximal effect.

| SMILES | Potency |
| --- | --- |
| O=C(c1cccs1)N1CCN(c2ncc(C(F)(F)F)cc2Cl)CC1 | inconclusive: 11.7 µM [inhibitor, single point] |
| Cc1cnc(C(=O)OCC(=O)c2c[nH]c3ccccc23)cn1 | inconclusive: 6.57 µM [inhibitor, partial curve, poor fit] |
| C#Cc1ccc([C@H]2C=C(C(=O)N3CCN(Cc4ccccc4)CC3)O[C@@H](OCc3ccc(CO)cc3)C2)cc1 | active: 2.33 µM |
| O=C(Nc1ccon1)Nc1ccccc1C(F)(F)F | inactive |
| CCCCC(NC(=O)COc1cc2c(c3oc(=O)cc(C)c13)CCC(C)(C)O2)C(=O)O (centres undefined) | inconclusive: 2.33 µM [inhibitor, full curve] |
| CC1CCCCN1Cc1c(O)ccc2c(=O)c(-c3ccccc3)coc12 (centres undefined) | inactive |
| Cn1c(CNc2nc(-c3ccccc3)cs2)nnc1SCC(=O)OC1CCCCC1 | inconclusive: 18.5 µM [inhibitor, single point] |
| CN([C@@H](Cc1ccc(OS(=O)(=O)c2cccc3cnccc23)cc1)C(=O)N1CCN(c2ccccc2)CC1)S(=O)(=O)c1cccc2cnccc12 | active: 1.04 µM |
| Cc1cc(OCc2cc(C(=O)N3CCN(C)C(=O)[C@@H]3C)no2)cc(C)c1Cl | inconclusive: 20.8 µM [inhibitor, single point] |
| C#CCN(C(=O)c1cc(COc2ccc(C)c(C)c2)on1)C1CCCCC1 | inconclusive: 10.4 µM [inhibitor, single point] |
| O=c1[nH]c2ccccc2nc1/C=C(\O)C(F)F | inconclusive: 4.15 µM [inhibitor, partial curve, poor fit] |
| Cc1nccn1CC(O)COc1ccccc1 (centres undefined) | inconclusive: 18.5 µM [inhibitor, single point] |
| O=C(Nc1ccc(Oc2cccnc2)cc1)C1CCN(Cc2ccccc2)CC1 | inconclusive: 14.7 µM [inhibitor, single point] |
| CCCC(=O)NC(Nc1ccccc1F)C(Cl)(Cl)Cl (centres undefined) | inconclusive: 0.294 µM [inhibitor, full curve, poor fit] |
| COc1ccc(S(=O)(=O)Nc2c(NC3CCCCC3)c3ccccc3oc2=O)cc1OC | inconclusive: 18.5 µM [inhibitor, single point] |
| CC(=O)Nc1ccc(S(=O)(=O)Nc2nc3ccc(C)cc3s2)cc1 | inactive |
| Cc1ccc(OCC(=O)Nc2c(C)nn(-c3ccccc3)c2C)c(Br)c1 | inactive |
| CC(C)(C)NC(=O)C(c1ccncc1)N(C(=O)CNC(=O)c1ccco1)c1ccc2c(c1)OCO2 (centres undefined) | inconclusive: 11.7 µM [inhibitor, partial curve, poor fit] |
| CCn1c(C)c(C)c2cc(C(=O)NCCN3CCOCC3)ccc21 | inconclusive: 4.15 µM [inhibitor, partial curve, poor fit] |
| Cc1ccc(C)n1-c1ccc(-c2nnco2)cc1 | active: 11.7 µM |
| COc1ccccc1N1CCN(S(=O)(=O)c2ccc3c4c(cccc24)C(=O)N3)CC1 | inconclusive: 18.5 µM [inhibitor, single point] |
| CC1=C(C(=O)Nc2ccccc2)C(c2ccc(C)o2)n2ncnc2N1 (centres undefined) | inactive |
| O=C(Nc1nnc(-c2ccco2)o1)C1CC1 | inconclusive: 0.294 µM [inhibitor, full curve, poor fit] |

Sorted by heavy-atom count (ascending): part of the list above

| SMILES | Potency |
| --- | --- |
| C#CCN(C(=O)c1cc(COc2ccc(C)c(C)c2)on1)C1CCCCC1 | inconclusive: 10.4 µM [inhibitor, single point] |
| O=C(Nc1ccc(Oc2cccnc2)cc1)C1CCN(Cc2ccccc2)CC1 | inconclusive: 14.7 µM [inhibitor, single point] |
| COc1ccc(S(=O)(=O)Nc2c(NC3CCCCC3)c3ccccc3oc2=O)cc1OC | inconclusive: 18.5 µM [inhibitor, single point] |

The list continues.

| SMILES | Potency |
| --- | --- |
| COc1cccc(CNC(=O)CCCn2nc(C)n3c(cc4sccc43)c2=O)c1 | inconclusive: 0.0738 µM [inhibitor, full curve, poor fit] |
| CN(C)S(=O)(=O)c1ccc2c(c1)C(=NO)c1cc(S(=O)(=O)N(C)C)ccc1-2 | active: 2.62 µM |
| Cc1c(C(=O)N2CCN(S(=O)(=O)c3cc(F)ccc3F)CC2)oc2ccccc12 | inactive |
| O=C(NC12CC3CC(CC(C3)C1)C2)N1CC2Cc3cccc(=O)n3C(C2)C1 (centres undefined) | inconclusive: 18.5 µM [inhibitor, single point] |
| Cc1sc2ccc3sccc3c2[n+]1C | active: 14.7 µM |
| O=C(NCC(=O)N(Cc1cccs1)C(C(=O)NC1CCCCC1)c1ccco1)c1ccco1 (centres undefined) | inconclusive: 8.28 µM [inhibitor, partial curve, poor fit] |
| O=C(O)c1ccc(-c2nc3ccccc3[nH]2)cc1 | inactive |
| CCOC(=O)c1c(NC(=O)c2ccc(S(=O)(=O)N(C)CC3CCCO3)cc2)sc2c1CC(C)(C)NC2(C)C (centres undefined) | inconclusive: 18.5 µM [inhibitor, single point] |
| O=S(=O)(c1ccccc1F)N1CCC(c2nc3ccccc3[nH]2)CC1 | inconclusive: 9.28 µM [inhibitor, partial curve] |
| C/C(=N\NC(=S)Nc1ccccc1C)c1cc2ccccc2o1 | active: 7.38 µM |
| Cc1ccc(C(=O)Nc2c(N)nc(SCC(=O)NCC3CCCO3)[nH]c2=O)cc1 (centres undefined) | inactive |
| C=CCN(c1cccc(C(F)(F)F)c1)S(=O)(=O)c1cccc(C(=O)OCC(=O)NCCC)c1 | active: 13.1 µM |
| CCCSc1sc(C(=O)OC)c(-c2cccs2)c1C#N | active: 10.4 µM |
| COC(=O)N/N=C(\C)c1ccccc1OC(F)F | inactive |
| CC(C)OC(=O)Nc1ccc2c(c1)N(C(=O)N1CCN(C)CC1)c1ccccc1CC2 | inconclusive: 14.7 µM [inhibitor, single point] |
| COc1ccc(Cl)cc1C(=O)NC(=S)Nc1ccccc1N1CCOCC1 | inconclusive: 10.4 µM [inhibitor, single point] |
| Cc1ccc(SCCC(=O)OCC(=O)Nc2ccc(C(N)=O)cc2)cc1 | inconclusive: 14.7 µM [inhibitor, single point] |
| CCc1ccccc1OCC(=O)Nc1cc(S(=O)(=O)N2CCOCC2)ccc1N1CCCCC1 | active: 1.04 µM |
| CN(CC(=O)Nc1cccc(F)c1)C(=O)c1ccccc1Cc1ccccc1 | inconclusive: 11.7 µM [inhibitor, single point] |
| c1ccc(CC2CCN(c3nnnn3-c3ccccc3)CC2)cc1 | inactive |
| O=C(NCc1ccccc1)C(c1ccco1)N(C(=O)c1csnn1)c1ccccc1 (centres undefined) | inactive |
| Cc1ccc2c(c1)C(=C(C#N)C#N)C(=O)N2CCN1CCOCC1 | inactive |
| CCN(CC(=O)Nc1c(F)cccc1F)C(=O)c1ccc(NC(=O)CC2SC(N3CCCC3)=NC2=O)cc1 (centres undefined) | active: 13.1 µM |

| SMILES | Potency |
| --- | --- |
| COc1ccc(NC(=O)Nc2nnc(Cc3ccc(OC)c(OC)c3)s2)cc1 | active: 11.7 µM |
| CC1(C)CC2(CC(c3ccc(F)cc3)c3ccc(O)cc3O2)NC(=S)N1 (centres undefined) | inactive |
| Cn1c(N)c(S(=O)(=O)NCc2ccc(F)cc2)c(=O)n(C)c1=O | inactive |
| Cc1nonc1CC(=O)N1CCCC(C(=O)c2ccc(Cl)cc2)C1 (centres undefined) | inconclusive: 11.7 µM [inhibitor, partial curve, poor fit] |
| CC(=O)Nc1cc(NC(C)=O)cc(C(=O)NC(C)(C)C)c1 | inconclusive: 18.5 µM [inhibitor, single point] |
| COc1ccc(C(=O)n2nc(-c3ccccc3)nc2SC)cc1 | inconclusive: 0.329 µM [inhibitor, full curve, poor fit] |
| O=c1[nH]ncc2c3ccccc3n(Cc3ccccc3F)c12 | inconclusive: 18.5 µM [inhibitor, single point] |
| CCOc1ccc(C(C)=O)cc1COC(=O)c1ccccc1C(=O)N(C)Cc1ccccc1 | inconclusive: 10.4 µM [inhibitor, partial curve, poor fit] |
| CC(C)[C@H]1CN=C2N(CCNC(=O)CCC3CCCCC3)[C@H](Cc3ccc(O)cc3)CN21 | inconclusive: 4.15 µM [inhibitor, full curve, poor fit] |
| CCOC(=O)c1cnc2c(-c3ccc(Cl)cc3)cnn2c1C | inconclusive: 18.5 µM [inhibitor, single point] |
| CCOC(=O)C1(C(F)(F)F)N=C(N(C)C)OC(N(C)C)=N1 | active: 4.15 µM |
| CCCCS(=O)(=O)Nc1ccc(N2CCOCC2)c(S(=O)(=O)N2CCOCC2)c1 | inactive |
| Cn1c(CCN2CCN(c3ccccn3)CC2)nc2cc(NS(=O)(=O)c3ccccc3)ccc21 | inconclusive: 2.62 µM [inhibitor, full curve] |
| CCCC[C@@H]1CNC(=S)N1CCc1cccc(F)c1 | inconclusive: 9.28 µM [inhibitor, single point] |
| CC(C)(CN1CCN(C(c2ccccc2)c2ccccc2)CC1)NS(=O)(=O)c1ccccc1 | active: 10.4 µM |
| O=C(NCCCCc1ccccc1)Nc1cccc(F)c1 | inconclusive: 18.5 µM [inhibitor, single point] |
| O=C(Nc1cccc2ncccc12)C12CC3CC(CC(C3)C1)C2 | inconclusive: 1.47 µM [inhibitor, full curve, poor fit] |
| Cc1cc(C)n(CC(O)COc2ccccc2C)n1 (centres undefined) | inactive |
| Cc1c(O)ccc(C(=O)CN2CCN(c3ccccc3)CC2)c1O | inconclusive: 5.86 µM [inhibitor, partial curve] |
| COc1ccc(N=Nc2nc(-c3ccccc3)c(-c3ccccc3)[nH]2)cc1 | inconclusive: 8.28 µM [inhibitor, partial curve, poor fit] |
| COc1ccc(OCCSc2nnc(Cc3cccc4ccccc34)n2N)cc1 | inconclusive: 10.4 µM [inhibitor, single point] |
| Cc1nn(CCC(=O)N2CCN(S(=O)(=O)c3ccc(Cl)cc3)CC2)c(C)c1C | inconclusive: 11.7 µM [inhibitor, single point] |
| Cc1cc(Oc2ccc(C#N)cc2)nc(N2CCOCC2)n1 | inconclusive: 5.22 µM [inhibitor, partial curve, poor fit] |

A second format for some results above.
SMILES	Potency
CCCC[C@@H]1CNC(=S)N1CCc1cccc(F)c1	inconclusive: 9.28 µM [inhibitor, single point]
CC(C)(CN1CCN(C(c2ccccc2)c2ccccc2)CC1)NS(=O)(=O)c1ccccc1	active: 10.4 µM
